Binding data for 7 molecules are collected here from paper PMC7461561.

The chains behind the UniProt entries cited, without tags or fusion partners.
UniProt O60260: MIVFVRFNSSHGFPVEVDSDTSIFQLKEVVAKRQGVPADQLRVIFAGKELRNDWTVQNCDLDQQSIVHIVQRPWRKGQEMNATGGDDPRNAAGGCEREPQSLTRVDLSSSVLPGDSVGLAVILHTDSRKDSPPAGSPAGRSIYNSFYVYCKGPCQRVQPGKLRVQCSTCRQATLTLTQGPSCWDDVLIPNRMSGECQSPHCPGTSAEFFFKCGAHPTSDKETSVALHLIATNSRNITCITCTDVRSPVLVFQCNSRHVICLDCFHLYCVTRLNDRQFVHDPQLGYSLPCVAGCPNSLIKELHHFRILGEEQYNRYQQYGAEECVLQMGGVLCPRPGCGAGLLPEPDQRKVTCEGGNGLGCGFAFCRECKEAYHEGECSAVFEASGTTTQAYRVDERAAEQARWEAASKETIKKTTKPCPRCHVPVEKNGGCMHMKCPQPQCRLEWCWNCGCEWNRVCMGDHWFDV

Results are given in words; binding and its absence hold for the method and conditions named. Binding seen in cells or lysates may run through a third protein. These calls come from enrichment with a bait or labelling near it, and not all partners need be listed.

The target of the experiment is Parkin (human (endogenous in platelets)) (UniProt O60260). Kind of experiment: affinity purification with mass spectrometry; IP with Parkin-specific antibodies from human DM platelet lysate; silver-stained gel, 10 bands enriched in DM against HC cut out; in-gel trypsin digestion, LC-MS/MS, Mascot search.

B1: Thioredoxin (protein, UniProt P10599 1-105)
chain: MVKQIESKTAFQEALDAAGDKLVVVDFSATWCGPCKMIKPFFHSLSEKYSNVIFLEVDVDDCQDVASECEVKCMPTFQFFKKGQKVGEFSGANKEKLEATINELV
Take B1: the binding result is “binds”.

B2: Glutathione peroxidase 1 (protein, UniProt P07203 1-203)
chain: MCAARLAAAAAAAQSVYAFSARPLAGGEPVSLGSLRGKVLLIENVASLUGTTVRDYTQMNELQRRLGPRGLVVLGFPCNQFGHQENAKNEEILNSLKYVRPGGGFEPNFMLFEKCEVNGAGAHPLFAFLREALPAPSDDATALMTDPKLITWSPVCRNDVAWNFEKFLVGPDGVPLRRYSRRFQTIDIEPDIEALLSQGPSCA
For B2, the binding result is reported as “binds”.

B3: Ubiquitin-Like protein 4A (protein, UniProt P11441 1-157)
chain: MQLTVKALQGRECSLQVPEDELVSTLKQLVSEKLNVPVRQQRLLFKGKALADGKRLSDYSIGPNSKLNLVVKPLEKVLLEEGEAQRLADSPPPQVWQLISKVLARHFSAADASRVLEQLQRDYERSLSRLTLDDIERLASRFLHPEVTETMEKGFSK
As to B3, the binding entry is recorded as “binds”.

B4: E3 ubiquitin-protein ligase HECTD3 (protein, UniProt Q5T447 1-861)
chain: MAGPGPGAVLESPRQLLGRVRFLAEAARSLRAGRPLPAALAFVPREVLYKLYKDPAGPSRVLLPVWEAEGLGLRVGAAGPAPGTGSGPLRAARDSIELRRGACVRTTGEELCNGHGLWVKLTKEQLAEHLGDCGLQEGWLLVCRPAEGGARLVPIDTPNHLQRQQQLFGVDYRPVLRWEQVVDLTYSHRLGSRPQPAEAYAEAVQRLLYVPPTWTYECDEDLIHFLYDHLGKEDENLGSVKQYVESIDVSSYTEEFNVSCLTDSNADTYWESDGSQCQHWVRLTMKKGTIVKKLLLTVDTTDDNFMPKRVVVYGGEGDNLKKLSDVSIDETLIGDVCVLEDMTVHLPIIEIRIVECRDDGIDVRLRGVKIKSSRQRELGLNADLFQPTSLVRYPRLEGTDPEVLYRRAVLLQRFIKILDSVLHHLVPAWDHTLGTFSEIKQVKQFLLLSRQRPGLVAQCLRDSESSKPSFMPRLYINRRLAMEHRACPSRDPACKNAVFTQVYEGLKPSDKYEKPLDYRWPMRYDQWWECKFIAEGIIDQGGGFRDSLADMSEELCPSSADTPVPLPFFVRTANQGNGTGEARDMYVPNPSCRDFAKYEWIGQLMGAALRGKEFLVLALPGFVWKQLSGEEVSWSKDFPAVDSVLVKLLEVMEGMDKETFEFKFGKELTFTTVLSDQQVVELIPGGAGIVVGYGDRSRFIQLVQKARLEESKEQVAAMQAGLLKVVPQAVLDLLTWQELEKKVCGDPEVTVDALRKLTRFEDFEPSDSRVQYFWEALNNFTNEDRSRFLRFVTGRSRLPARIYIYPDKLGYETTDALPESSTCSSTLFLPHYASAKVCEEKLRYAAYNCVAIDTDMSPWEE
For B4, the binding result is “binds”.

B5: Acyl-Coenzyme A thioesterase 13 (protein, UniProt Q9NPJ3 1-140)
chain: MTSMTQSLREVIKAMTKARNFERVLGKITLVSAAPGKVICEMKVEEEHTNAIGTLHGGLTATLVDNISTMALLCTERGAPGVSVDMNITYMSPAKLGEDIVITAHVLKQGKTLAFTSVDLTNKATGKLIAQGRHTKHLGN
B5: the binding entry was “binds”.

B6: ATP synthase protein 8 (protein, UniProt P03928 1-68)
chain: MPQLNTTVWPTMITPMLLTLFLITQLKMLNTNYHLPPSPKPMKMKNYNKPWEPKWTKICSLHSLPPQS
As to B6, the binding entry is reported as “binds”.

B7: Regulator of G-protein signaling 18 (protein, UniProt Q9NS28 1-235)
chain: METTLLFFSQINMCESKEKTFFKLIHGSGKEETSKEAKIRAKEKRNRLSLLVQKPEFHEDTRSSRSGHLAKETRVSPEEAVKWGESFDKLLSHRDGLEAFTRFLKTEFSEENIEFWIACEDFKKSKGPQQIHLKAKAIYEKFIQTDAPKEVNLDFHTKEVITNSITQPTLHSFDAAQSRVYQLMEQDSYTRFLKSDIYLDLMEGRPQRPTNLRRRSRSFTCNEFQDVQSDVAIWL
For B7, the binding entry is “binds”.
